## Percent effect of library compounds

By UniProt entry, the sequences of proteins in these tests, tags left out.
UniProt P9WPC5, whole entry: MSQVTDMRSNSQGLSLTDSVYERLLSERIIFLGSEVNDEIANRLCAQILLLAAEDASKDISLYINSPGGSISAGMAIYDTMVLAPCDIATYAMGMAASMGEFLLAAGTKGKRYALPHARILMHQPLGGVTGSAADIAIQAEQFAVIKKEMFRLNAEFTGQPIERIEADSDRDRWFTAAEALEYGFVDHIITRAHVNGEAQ
UniProt P9WPC3, whole entry partner: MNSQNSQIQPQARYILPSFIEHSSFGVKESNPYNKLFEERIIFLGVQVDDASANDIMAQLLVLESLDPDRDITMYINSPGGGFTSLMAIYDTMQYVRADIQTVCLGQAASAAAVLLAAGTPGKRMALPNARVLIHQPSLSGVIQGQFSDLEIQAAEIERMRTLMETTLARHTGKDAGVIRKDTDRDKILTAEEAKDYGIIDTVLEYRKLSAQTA
UniProt P9WFT3, whole entry: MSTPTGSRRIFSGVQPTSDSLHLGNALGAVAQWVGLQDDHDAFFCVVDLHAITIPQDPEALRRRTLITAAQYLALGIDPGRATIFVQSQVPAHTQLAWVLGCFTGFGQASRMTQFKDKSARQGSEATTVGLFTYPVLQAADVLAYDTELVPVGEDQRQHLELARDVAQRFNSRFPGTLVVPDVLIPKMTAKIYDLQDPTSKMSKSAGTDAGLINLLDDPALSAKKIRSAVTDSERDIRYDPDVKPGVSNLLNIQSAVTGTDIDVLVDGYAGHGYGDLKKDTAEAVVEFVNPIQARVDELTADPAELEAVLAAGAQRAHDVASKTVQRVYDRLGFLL
UniProt P9WNZ1, whole entry: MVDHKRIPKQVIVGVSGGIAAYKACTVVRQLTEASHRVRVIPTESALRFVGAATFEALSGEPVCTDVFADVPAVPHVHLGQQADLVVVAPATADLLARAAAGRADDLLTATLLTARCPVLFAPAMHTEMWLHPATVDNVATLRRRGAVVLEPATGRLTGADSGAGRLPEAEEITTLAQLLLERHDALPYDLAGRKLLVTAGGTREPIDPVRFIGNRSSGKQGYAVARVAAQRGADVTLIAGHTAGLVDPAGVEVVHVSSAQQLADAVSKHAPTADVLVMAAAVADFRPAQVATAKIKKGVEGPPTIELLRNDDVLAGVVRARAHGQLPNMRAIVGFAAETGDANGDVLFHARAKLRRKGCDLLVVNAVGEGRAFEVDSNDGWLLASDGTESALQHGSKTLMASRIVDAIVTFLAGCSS

The values are deposited in ChEMBL (CHEMBL3988442, “University of Dundee, Small-Polar-MMV Screening Library” (2021)).

A: 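ClpP1P2, Mycobacterium tuberculosis (UniProt P9WPC5 and UniProt P9WPC3). Protease assay of ClpP1P2, read by the AMC dye that it sets free. Tested at 50 µM. Direction is inferred from only a few compounds that gave an IC50; most scored high, so higher reads as stronger inhibition. Most other retested compounds had strongly negative values. About 69,000 compounds were tested under these conditions; 0.015% (about 10) showed 50% or more at least once.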
B: 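Assay of Toxoplasma gondii numbers, read through their beta-galactosidase reporter with a colour substrate. Tested at 10 µM. The record gives no direction; the compounds picked for IC50 retests had high values, so higher reads as fewer parasites. Of about 67,000 compounds tested this way, about 260 (0.38%) reached 50% or more in at least one test.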
C: 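Tryptophan-tRNA ligase, Mycobacterium tuberculosis (UniProt P9WFT3). Enzyme assay of tryptophanyl-tRNA synthetase; the read-out is not stated. Concentration: 10 µM. Direction is not recorded; retested compounds ran higher, which suggests that high means inhibition. Of about 65,000 compounds tested this way, about 64 (0.098%) reached 50% or more in at least one test.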
D: 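Coenzyme A biosynthesis protein CoaBC, Mycobacterium tuberculosis (UniProt P9WNZ1). Enzyme assay of CoaBC with a phosphate dye (Biomol Green) read at 650 nm. Concentration: 30 µM. Higher reads as stronger inhibition, judged from the few compounds that gave an IC50. Most strong results did not repeat in a second test. Of about 67,000 compounds tested this way, about 40 (0.06%) reached 50% or more in at least one test.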

Results are given as percent effect.
How 0% and 100% were set is not recorded. Most values in the screen are low, and negative values occur.
The compounds are a random part of those screened.
A dash means the value is not listed here; it may have been measured.

compound | A | B | C | D
Cc1noc(C)c1CN1C[C@@H]2COC[C@H](C(=O)N3CCCCO3)[C@@H]2C1 | 8.325% | - | -0.7049% | 0.2591%
Cc1nc(CN2Cc3nccn3CC(COCC3CC3)C2)cs1 (configuration not stated) | -19.92% | - | -2.975% | -8.841%
CN(C)CCN(Cc1ccc(Cl)cc1)C(=O)c1ccncc1 | -1.935% | -4.172% | -5.026% | -13.14%
N#CC(NC(=O)CC(F)(F)F)c1ccsc1 (configuration not stated) | -20.61% | 0.2016% | -2.037% | 6.776%
O=S(=O)(c1ccc(N2CCCCC2)c2nonc12)N1CCCCC1 | -2.589% | 12.06% | -2.513% | 4.74%
Cc1ccc(CNC2(Cc3cc(-c4ccccc4)on3)COC2)o1 | -1.923% | -3.069% | -2.504% | 9.051%
Cc1nc(CCC(N)=O)cc(C2CCCCN2S(C)(=O)=O)n1 (configuration not stated) | -20.5% | -17.33% | 2.766% | 8.447%
CC(C)NC(=O)N1CCC2(CC1)C(=O)NCCN2Cc1ccccc1 | -14.06% | - | -4.285% | 5.598%
COc1cccc(CCNS(=O)(=O)c2ccc(NC(C)=O)cc2)c1 | -1.156% | -1.257% | -2.013% | 6.343%
O=C(OCC1CCCN1)c1cccc(NC(=O)c2ccco2)c1 (configuration not stated) | -8.511% | - | -3.536% | 4.294%
CCCn1nnnc1CN(c1ccc(C)cc1)C(C)C | -4.979% | -0.6715% | -8.287% | -6.64%
CC(=O)N1CCC2(C1)c1ccccc1S(=O)(=O)N2Cc1ccccc1 (configuration not stated) | 0.08999% | -13.18% | 2.886% | 0.4847%
CO[C@@H]1CCN(C2CCOCC2)C[C@@H]1Cc1ccccc1 | 7.891% | - | -0.4042% | 6.361%
O=C(O)C(F)(F)F.[H][C@@]12CCN(Cc3ccoc3)C[C@]1([H])O[C@H](C(=O)NC1CC1)C2 | - | -42.19% | - | -
Cc1cc(NC(=O)CN2CCOC(CN(C)C)C2)n(C)n1 (configuration not stated) | 14.41% | 22.53% | -1.052% | -24.22%
COCCCN1CCC(NC(=O)C(C)C)CC1 | -0.4055% | 16.85% | -1.398% | 1.075%
Cc1nn(C)c(N(C)C)c1CNCc1cccc(Cn2ccnc2)c1 | 1.187% | -18.84% | -7.319% | 6.579%
CC(C)(C)CC(=O)Nc1ncn(CC(=O)NCc2ccccc2)n1 | -7.708% | - | 4.613% | 5.043%
COCCCN1Cc2cccc(NC(=O)c3ccccc3Cl)c2C1 | 3.378% | 5.465% | 12.24% | 7.851%
[H][C@@]12CN(Cc3ccc4c(c3)OCO4)C[C@]1([H])OCC(=O)N2 | - | -4.307% | - | -
CCCn1nc2c(cc1=O)CN(Cc1nc(C)c(C)o1)CC2 | -43.96% | -11.67% | 2.887% | -0.1304%
O=C1CC(NCc2ccncc2)CN1Cc1cccc(F)c1 (configuration not stated) | -12.02% | -9.348% | -2.245% | -8.316%
CCC1CCCCN1Cc1ncc(C(C)(C)C)o1 (configuration not stated) | -3.316% | -10.54% | -6.621% | 6.839%
Cn1ccnc1NC[C@@H]1CCC[C@@H]2CN(Cc3nccs3)C[C@@H]21 | 0.01363% | - | -6.365% | -
CC(C)CCn1cc(C(C(=O)O)N2CCSCC2)cn1 (configuration not stated) | -8.744% | -10.11% | -7.831% | 5.679%
O=S1(=O)C[C@@H]2[C@H](C1)N(Cc1ncc[nH]1)CCN2Cc1cccnc1 | -9.156% | - | 1.319% | 8.211%
O=c1c2sccc2ncn1Cc1cc(C2CC2)[nH]n1 | -5.778% | -8.61% | 0.4699% | 6.173%
O=C(NC1CCCC1)[C@@H]1C[C@@H]2CCN(Cc3ccoc3)C[C@H]2O1 | -16.39% | - | - | 3.21%
COc1ccc(C)cc1NC(=O)C1CSc2ncc(C)c(=O)n2C1 (configuration not stated) | -9.224% | 3.474% | 6.34% | -1.018%
Cc1ccc(S(=O)(=O)N2CCC(Oc3cccnn3)CC2)c(C)c1 | -6.558% | 5.113% | 2.189% | 2.122%
Cc1cc(C(=O)N2CCN(C)CC2)nn1CC(=O)NCc1cccs1 | 9.998% | - | 1.25% | 5.948%
CCc1noc(CN2CCOC3(CCCC3)C2)n1 | -10.71% | 23.24% | 1.175% | -1.157%
O=C(O)C(F)(F)F.[H][C@]12CCN(C(=O)c3ccco3)[C@@]1([H])CC[C@@H](COCCN1CCCC1)O2 | - | 3.706% | - | -
CC(C)n1cc(CN2CCCN(C(=O)CC3CCCCC3)CC2)cn1 | -1.134% | -59.42% | -7.456% | -0.8772%
NCCCC(=O)N1CCC2(CC1)CN(C(=O)c1ccc(Cl)cc1)CCO2 | 1.111% | 4.52% | -9.421% | -1.316%
Cc1cc2c(=O)n3c(nc2s1)CCN(Cc1cnn(C)c1C)CC3.Cl | - | -1.858% | - | -
c1cnc(-c2cnc(N3CCSCC3)nc2C2CC2)cn1 | 9.446% | -3.494% | -0.7049% | -1.554%
CCOCC1(CNCc2cc(O)c3cc(C)ccc3n2)CC1 | -7.699% | 18.42% | 1.067% | -2.334%